The values that follow come from the supplement of paper PMC10849652.

The chains behind the UniProt entries cited, without tags or fusion partners. Where a name states a change or a piece, a line headed by the entry shows the natural chain unless it says otherwise.
UniProt Q8TET4: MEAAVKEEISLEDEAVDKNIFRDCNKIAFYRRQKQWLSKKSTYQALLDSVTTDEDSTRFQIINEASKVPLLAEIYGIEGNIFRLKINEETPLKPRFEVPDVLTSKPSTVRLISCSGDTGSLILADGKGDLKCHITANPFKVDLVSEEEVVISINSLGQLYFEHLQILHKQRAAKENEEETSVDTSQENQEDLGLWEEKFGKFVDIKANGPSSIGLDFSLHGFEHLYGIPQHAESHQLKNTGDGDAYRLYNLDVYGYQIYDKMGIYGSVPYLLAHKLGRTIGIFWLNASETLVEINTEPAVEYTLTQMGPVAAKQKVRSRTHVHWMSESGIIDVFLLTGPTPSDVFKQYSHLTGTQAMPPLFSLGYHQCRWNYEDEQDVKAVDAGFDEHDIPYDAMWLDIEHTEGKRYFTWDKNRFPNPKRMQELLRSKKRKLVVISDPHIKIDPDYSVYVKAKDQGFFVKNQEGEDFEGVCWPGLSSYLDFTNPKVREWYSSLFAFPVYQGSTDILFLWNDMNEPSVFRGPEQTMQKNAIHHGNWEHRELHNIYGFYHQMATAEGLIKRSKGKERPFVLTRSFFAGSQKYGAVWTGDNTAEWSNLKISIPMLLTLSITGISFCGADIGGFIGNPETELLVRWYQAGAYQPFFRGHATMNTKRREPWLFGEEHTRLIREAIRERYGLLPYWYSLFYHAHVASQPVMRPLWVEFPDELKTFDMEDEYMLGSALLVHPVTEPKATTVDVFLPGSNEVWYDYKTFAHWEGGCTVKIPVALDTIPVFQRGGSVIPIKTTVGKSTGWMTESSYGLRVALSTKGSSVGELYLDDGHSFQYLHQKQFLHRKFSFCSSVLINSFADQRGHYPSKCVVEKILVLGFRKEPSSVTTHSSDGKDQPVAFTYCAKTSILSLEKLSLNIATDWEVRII
UniProt Q86XX4: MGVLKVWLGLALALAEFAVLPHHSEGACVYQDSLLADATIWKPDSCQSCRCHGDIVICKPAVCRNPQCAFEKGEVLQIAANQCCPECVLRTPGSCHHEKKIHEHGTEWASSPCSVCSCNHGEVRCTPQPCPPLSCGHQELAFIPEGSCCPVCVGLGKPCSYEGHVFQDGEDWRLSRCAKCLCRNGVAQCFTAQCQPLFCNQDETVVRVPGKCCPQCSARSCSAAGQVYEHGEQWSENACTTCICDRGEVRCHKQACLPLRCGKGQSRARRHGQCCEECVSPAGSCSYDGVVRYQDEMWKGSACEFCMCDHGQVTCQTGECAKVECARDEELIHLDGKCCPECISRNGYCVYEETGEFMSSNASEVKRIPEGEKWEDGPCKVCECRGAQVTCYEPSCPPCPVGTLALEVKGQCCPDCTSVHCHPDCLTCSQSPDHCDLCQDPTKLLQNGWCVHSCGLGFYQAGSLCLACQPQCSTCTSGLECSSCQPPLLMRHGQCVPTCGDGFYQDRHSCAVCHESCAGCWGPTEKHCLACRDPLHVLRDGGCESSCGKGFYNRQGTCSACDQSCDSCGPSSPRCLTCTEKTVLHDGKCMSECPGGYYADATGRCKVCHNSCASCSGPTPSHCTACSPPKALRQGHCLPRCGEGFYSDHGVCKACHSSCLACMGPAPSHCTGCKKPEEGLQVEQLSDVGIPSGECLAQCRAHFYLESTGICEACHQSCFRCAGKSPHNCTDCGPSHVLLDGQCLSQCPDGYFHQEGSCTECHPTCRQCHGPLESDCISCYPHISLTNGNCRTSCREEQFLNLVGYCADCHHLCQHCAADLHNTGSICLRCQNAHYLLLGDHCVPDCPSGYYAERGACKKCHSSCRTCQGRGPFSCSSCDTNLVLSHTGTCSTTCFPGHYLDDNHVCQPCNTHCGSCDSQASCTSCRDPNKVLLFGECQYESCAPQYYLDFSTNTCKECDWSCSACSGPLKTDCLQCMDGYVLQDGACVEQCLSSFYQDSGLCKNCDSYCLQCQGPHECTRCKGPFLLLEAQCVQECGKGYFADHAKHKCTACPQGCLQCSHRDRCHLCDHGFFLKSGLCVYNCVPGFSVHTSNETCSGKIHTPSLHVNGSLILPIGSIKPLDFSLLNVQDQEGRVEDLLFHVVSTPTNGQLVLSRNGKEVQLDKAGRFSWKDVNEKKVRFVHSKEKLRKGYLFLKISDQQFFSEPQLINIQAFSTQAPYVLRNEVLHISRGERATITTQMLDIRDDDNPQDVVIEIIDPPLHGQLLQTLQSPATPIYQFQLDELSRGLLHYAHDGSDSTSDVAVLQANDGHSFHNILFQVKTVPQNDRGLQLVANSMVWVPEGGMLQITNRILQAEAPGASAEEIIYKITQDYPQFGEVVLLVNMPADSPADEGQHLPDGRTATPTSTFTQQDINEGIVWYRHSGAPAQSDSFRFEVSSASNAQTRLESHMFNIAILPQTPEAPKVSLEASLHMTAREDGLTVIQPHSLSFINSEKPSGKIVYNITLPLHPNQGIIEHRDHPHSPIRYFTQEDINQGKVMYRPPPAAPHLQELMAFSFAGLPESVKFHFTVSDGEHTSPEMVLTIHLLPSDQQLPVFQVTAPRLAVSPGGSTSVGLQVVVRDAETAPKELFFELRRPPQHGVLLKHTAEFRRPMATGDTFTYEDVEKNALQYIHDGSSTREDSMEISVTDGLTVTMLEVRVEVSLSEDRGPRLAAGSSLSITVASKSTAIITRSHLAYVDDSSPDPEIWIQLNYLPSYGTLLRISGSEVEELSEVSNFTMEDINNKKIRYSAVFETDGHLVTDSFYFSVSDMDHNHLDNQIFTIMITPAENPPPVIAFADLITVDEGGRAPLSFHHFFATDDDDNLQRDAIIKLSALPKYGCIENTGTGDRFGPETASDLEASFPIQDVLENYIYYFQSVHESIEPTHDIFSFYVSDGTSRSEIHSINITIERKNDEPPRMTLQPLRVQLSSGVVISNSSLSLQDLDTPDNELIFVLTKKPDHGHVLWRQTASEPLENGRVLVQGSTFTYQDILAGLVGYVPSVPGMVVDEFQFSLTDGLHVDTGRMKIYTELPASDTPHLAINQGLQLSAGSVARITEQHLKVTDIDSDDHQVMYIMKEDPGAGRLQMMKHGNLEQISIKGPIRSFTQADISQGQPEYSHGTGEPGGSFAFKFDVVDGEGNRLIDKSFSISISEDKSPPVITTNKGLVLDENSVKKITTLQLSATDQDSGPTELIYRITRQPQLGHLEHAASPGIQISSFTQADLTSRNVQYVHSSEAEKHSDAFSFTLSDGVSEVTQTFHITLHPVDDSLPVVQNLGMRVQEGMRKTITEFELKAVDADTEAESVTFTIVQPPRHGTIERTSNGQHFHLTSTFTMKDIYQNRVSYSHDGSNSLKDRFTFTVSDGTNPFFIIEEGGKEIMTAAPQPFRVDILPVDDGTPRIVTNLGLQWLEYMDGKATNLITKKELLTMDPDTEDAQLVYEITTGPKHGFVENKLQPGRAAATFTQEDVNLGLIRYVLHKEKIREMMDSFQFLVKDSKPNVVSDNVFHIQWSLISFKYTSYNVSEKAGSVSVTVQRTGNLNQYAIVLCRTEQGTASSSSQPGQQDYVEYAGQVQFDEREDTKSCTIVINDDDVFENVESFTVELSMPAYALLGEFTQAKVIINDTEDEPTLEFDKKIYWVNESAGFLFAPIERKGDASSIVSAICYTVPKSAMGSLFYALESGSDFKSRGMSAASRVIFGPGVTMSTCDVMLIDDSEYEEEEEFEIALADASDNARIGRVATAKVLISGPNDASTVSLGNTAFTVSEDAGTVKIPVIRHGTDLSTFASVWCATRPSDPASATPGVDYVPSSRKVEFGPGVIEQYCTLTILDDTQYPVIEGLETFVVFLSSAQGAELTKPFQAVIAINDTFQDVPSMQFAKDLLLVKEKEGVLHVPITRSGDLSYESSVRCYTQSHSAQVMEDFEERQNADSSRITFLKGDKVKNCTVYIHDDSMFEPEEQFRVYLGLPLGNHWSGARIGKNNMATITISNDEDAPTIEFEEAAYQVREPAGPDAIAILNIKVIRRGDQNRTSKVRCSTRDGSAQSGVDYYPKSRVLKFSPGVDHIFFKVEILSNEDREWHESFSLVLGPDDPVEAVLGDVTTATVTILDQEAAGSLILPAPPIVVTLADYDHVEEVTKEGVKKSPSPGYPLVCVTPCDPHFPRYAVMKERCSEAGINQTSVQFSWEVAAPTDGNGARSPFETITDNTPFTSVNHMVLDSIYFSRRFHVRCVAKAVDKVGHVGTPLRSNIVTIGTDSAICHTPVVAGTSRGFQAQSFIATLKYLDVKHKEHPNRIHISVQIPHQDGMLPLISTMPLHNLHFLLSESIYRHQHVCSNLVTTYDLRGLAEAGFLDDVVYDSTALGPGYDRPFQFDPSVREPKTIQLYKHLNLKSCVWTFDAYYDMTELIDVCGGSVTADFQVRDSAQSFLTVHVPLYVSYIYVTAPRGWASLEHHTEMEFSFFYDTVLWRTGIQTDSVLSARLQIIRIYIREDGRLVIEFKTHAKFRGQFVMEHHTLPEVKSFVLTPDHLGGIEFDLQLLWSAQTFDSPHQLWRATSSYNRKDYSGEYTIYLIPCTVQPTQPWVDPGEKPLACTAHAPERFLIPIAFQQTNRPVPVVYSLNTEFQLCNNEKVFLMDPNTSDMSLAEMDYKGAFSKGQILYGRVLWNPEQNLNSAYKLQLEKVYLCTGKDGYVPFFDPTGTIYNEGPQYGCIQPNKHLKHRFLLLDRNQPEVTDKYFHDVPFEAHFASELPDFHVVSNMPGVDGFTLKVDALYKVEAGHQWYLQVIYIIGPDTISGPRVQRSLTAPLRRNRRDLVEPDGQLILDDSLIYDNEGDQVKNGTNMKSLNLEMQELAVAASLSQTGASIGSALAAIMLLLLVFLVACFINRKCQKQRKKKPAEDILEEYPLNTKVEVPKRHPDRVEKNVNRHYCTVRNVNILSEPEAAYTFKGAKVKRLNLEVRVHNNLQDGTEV
UniProt P15976: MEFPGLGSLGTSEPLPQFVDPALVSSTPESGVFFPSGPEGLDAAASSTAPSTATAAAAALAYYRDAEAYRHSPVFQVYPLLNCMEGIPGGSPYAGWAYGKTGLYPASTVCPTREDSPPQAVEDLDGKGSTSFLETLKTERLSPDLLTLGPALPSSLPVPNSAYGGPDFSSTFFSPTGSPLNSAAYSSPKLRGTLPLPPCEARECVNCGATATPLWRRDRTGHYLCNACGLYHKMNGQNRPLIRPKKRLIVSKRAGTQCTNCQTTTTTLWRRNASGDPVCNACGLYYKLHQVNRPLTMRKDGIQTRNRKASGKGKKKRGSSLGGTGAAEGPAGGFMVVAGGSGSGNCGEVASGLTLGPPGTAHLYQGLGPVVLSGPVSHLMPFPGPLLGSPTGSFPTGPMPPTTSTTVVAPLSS
UniProt Q5VTD9: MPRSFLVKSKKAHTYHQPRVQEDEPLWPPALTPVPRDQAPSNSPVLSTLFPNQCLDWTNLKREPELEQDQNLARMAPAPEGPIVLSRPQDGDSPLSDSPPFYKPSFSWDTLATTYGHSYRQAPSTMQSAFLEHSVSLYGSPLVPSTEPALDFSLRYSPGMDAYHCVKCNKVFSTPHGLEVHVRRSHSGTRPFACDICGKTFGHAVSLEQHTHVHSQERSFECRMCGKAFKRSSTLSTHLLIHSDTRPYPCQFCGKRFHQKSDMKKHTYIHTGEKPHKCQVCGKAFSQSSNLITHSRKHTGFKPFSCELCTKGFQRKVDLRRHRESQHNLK
UniProt A2VDF0: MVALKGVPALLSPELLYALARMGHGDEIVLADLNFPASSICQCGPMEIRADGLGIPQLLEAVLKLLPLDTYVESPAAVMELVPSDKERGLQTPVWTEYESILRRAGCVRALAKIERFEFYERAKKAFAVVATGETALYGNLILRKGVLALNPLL
UniProt P32456: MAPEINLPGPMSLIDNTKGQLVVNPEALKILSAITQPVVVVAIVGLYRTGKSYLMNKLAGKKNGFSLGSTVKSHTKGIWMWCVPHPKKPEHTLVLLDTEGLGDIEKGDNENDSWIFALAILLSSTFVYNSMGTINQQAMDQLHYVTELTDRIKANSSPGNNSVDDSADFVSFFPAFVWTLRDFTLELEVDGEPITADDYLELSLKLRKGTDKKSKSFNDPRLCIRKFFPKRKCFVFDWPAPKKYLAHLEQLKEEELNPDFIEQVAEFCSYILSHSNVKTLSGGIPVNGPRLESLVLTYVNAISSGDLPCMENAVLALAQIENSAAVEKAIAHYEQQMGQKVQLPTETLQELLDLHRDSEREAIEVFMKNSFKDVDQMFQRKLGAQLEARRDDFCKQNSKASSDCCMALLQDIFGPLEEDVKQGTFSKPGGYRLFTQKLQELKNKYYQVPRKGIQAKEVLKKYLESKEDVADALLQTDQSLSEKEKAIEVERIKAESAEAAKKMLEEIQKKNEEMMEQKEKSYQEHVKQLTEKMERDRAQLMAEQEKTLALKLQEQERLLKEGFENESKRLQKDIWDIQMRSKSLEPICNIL
UniProt P27469: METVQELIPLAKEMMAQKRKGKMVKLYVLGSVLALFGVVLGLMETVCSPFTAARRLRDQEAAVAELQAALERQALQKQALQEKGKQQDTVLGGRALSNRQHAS

The other results are listed elsewhere or left out.

Common to all, as to assay: log2 fold change, soluble protein after heating vs DMSO (PISA); higher = thermal stabilisation; K562 lysate, 10 uM; active = over 0.2 and 3.5 SD of the protein, either way, in both replicates (recomputed)
Compound in one assay: O=C(CCCCCCC(=O)Nc1ccccc1)NO [vorinostat]
The gist of the method:
(§1)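 Quantification was by TMTpro 16plex LC-MS/MS with equalised channel sums, applied to the supernatant after 21,000xg for 90 min. Samples were crude K562 extract at 1 mg/mL protein in PBS pH 7.4 with 1 mM MgCl2, treated with 10 μM compound for 30 min, heated for 3 min across 48°C-58°C, pooled and brought to 0.5% NP-40 at 4°C. Values are log-two fold changes in thermal stability relative to solvent controls, from duplicates.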

Compound in another assay: O=C(O)c1ccc2c(c1)nc(Nc1cccc(Cl)c1)c1ccncc12 [silmitasertib]
The gist of the method:
as §1

Compound in assay [1]: O=C1NC(=O)C(c2cnc3ccccn23)=C1c1cn2c3c(cc(F)cc13)CN(C(=O)N1CCCCC1)CC2
Put shortly: as §1

Compound in another assay: c1cn2cc(-c3ccc4cn[nH]c4c3)nc(Nc3ccc(N4CCOCC4)cc3)c2n1 [entospletinib]
Put shortly:
as §1

Compound in assay [2]: NCC(=O)Nc1ccc(-n2nc(C(F)(F)F)cc2-c2ccc3c(ccc4ccccc43)c2)cc1
Put shortly:
as §1

As to FUT11 (UniProt Q495W5), the log2 fold change is inactive: 0.058 with vorinostat, inactive: 0.049 in the assay with silmitasertib, inactive: -0.083 in assay [1] and inactive: 0.071 with entospletinib.
GANC (UniProt Q8TET4): the log2 fold change with vorinostat is inactive: 0.045; in the assay with silmitasertib it was inactive: -0.005; in assay [1], inactive: -0.506; with entospletinib, inactive: -0.013.
In the case of GAGE1 (UniProt Q13065), the log2 fold change with entospletinib is inactive: -0.06.
With FSIP2 (UniProt Q5CZC0), the figures for the log2 fold change (with vorinostat; with silmitasertib; in assay [1]) were inactive: 0.15, inactive: -0.03 and inactive: -0.083, respectively.
With FPGS (UniProt Q05932), the log2 fold change in the assay with entospletinib is inactive: -0.224.
GART (UniProt C9JZG2): the log2 fold change in assay [1] is inactive: -0.069; in the assay with entospletinib, inactive: 0.037.
FRAS1 isoform 2 (UniProt Q86XX4): the log2 fold change in assay [2] was inactive: 0.092; in assay [1], inactive: 0.011.
GAS6 isoform 1 (UniProt Q14393): the log2 fold change in the assay with vorinostat is inactive: 0.018; with silmitasertib, inactive: 0; in assay [1], inactive: -0.483; with entospletinib it was inactive: -0.086.
For FOXL2 (UniProt P58012), the values for the log2 fold change in the assay with vorinostat, in the assay with silmitasertib and with entospletinib were inactive: -0.501, inactive: -0.027 and inactive: -0.352, respectively.
For FRMPD2 (UniProt Q68DX3), the log2 fold change in assay [2] was inactive: 0.05; with vorinostat, inactive: -0.091; with silmitasertib it was inactive: 0.156; with entospletinib, inactive: -0.008.
In the case of GATA1 (UniProt P15976), the log2 fold change is inactive: -0.176 in the assay with vorinostat, inactive: 0.017 in the assay with silmitasertib and inactive: 0.045 in assay [1].
With GFI1B (UniProt Q5VTD9), the values for the log2 fold change (with vorinostat; in the assay with silmitasertib; in assay [1]) were inactive: -0.772, inactive: 0.057 and inactive: -0.294, respectively.
Take FUOM (UniProt A2VDF0): the log2 fold change was inactive: 0.03 in assay [2], inactive: 0.262 with vorinostat, inactive: -0.16 in the assay with silmitasertib and inactive: 0.024 in the assay with entospletinib.
Regarding FSCN2 isoform 2 (UniProt O14926), the values for the log2 fold change (in assay [2]; in assay [1]; with entospletinib) were inactive: -0.013, inactive: -0.099 and inactive: 0.066, respectively.
In the case of GBP2 (UniProt P32456), the log2 fold change in the assay with vorinostat is inactive: 0.242; with silmitasertib, inactive: -0.059; in assay [1] it was inactive: -0.047; with entospletinib, inactive: -0.063.
Turning to FZD1 (UniProt Q9UP38), the log2 fold change in assay [1] was inactive: 0.161.
Consider G0S2 (UniProt P27469), for which the log2 fold change is inactive: -0.169 with vorinostat, inactive: 0.016 in the assay with silmitasertib, inactive: 0.039 in assay [1] and inactive: 0.115 with entospletinib.
